{"source": "PubChem BioAssay AID652243 | Drosophila RNAi Screening Center, 2013", "purpose": "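Knock-downs that decrease or increase androgen receptor reporter signal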 (primary screen)", "cell system": "Drosophila S2R+ cells", "knock-down reagent": "long dsRNA against Drosophila genes", "duration": "72 h (48 h, then 24 h hormone)", "treatment": "synthetic androgen R1881 at 10 nM for 24 h", "measurement": "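Per-well raw luminescence of the androgen-driven firefly reporter and of the Renilla control, two replicates each, without normalisation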", "scale": "firefly reporter light: higher = more light from androgen-responsive reporter; Renilla control light: higher = more constitutive control signal (cell number, transfection)", "active means": "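Across duplicate plates, a knock-down whose log firefly/Renilla ratio shifted a set fold down or up from the GFP/LacZ control mean was a hit; the downward cut appears as both 1.5 and 3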", "meaning of the calls": "active = hit: reporter lowered or raised; inactive = no hit", "note": "The screen tested about 24,000 reagents; below is a random part of those with a known target gene and a result. In the full data, 246 (1%) are marked active. 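Plates not normalised; calls are printed but the firefly/Renilla ratio behind them is not deposited; fold cut for lowering reported inconsistently.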 Raw values are not corrected between plates. The record does not give: the amount of reagent."}
{"gene knocked down": "CG6885", "dsRNA": "DRSC10740", "firefly reporter light, replicate 1": 1.14e5, "firefly reporter light, replicate 2": 1.04e5, "Renilla control light, replicate 1": 1.20e6, "Renilla control light, replicate 2": 1.27e6, "Call": "inactive"}
{"gene knocked down": "CG14636", "dsRNA": "DRSC12223", "firefly reporter light, replicate 1": 68752, "firefly reporter light, replicate 2": 72361, "Renilla control light, replicate 1": 2.40e6, "Renilla control light, replicate 2": 1.58e6, "Call": "inactive"}
{"gene knocked down": "CG14636", "dsRNA": "DRSC28578", "firefly reporter light, replicate 1": 5.36e5, "firefly reporter light, replicate 2": 7.70e5, "Renilla control light, replicate 1": 1.16e6, "Renilla control light, replicate 2": 1.19e6, "Call": "inactive"}
{"gene knocked down": "cocoon", "dsRNA": "DRSC10916", "firefly reporter light, replicate 1": 3.52e5, "firefly reporter light, replicate 2": 3.03e5, "Renilla control light, replicate 1": 3.15e6, "Renilla control light, replicate 2": 2.83e6, "Call": "inactive"}
{"gene knocked down": "cocoon", "dsRNA": "DRSC28623", "firefly reporter light, replicate 1": 5.04e5, "firefly reporter light, replicate 2": 4.45e5, "Renilla control light, replicate 1": 1.43e6, "Renilla control light, replicate 2": 1.81e6, "Call": "inactive"}

2 entries from above, sorted by “Renilla control light, replicate 1”, descending.
{"gene knocked down": "cocoon", "dsRNA": "DRSC10916", "firefly reporter light, replicate 1": 3.52e5, "firefly reporter light, replicate 2": 3.03e5, "Renilla control light, replicate 1": 3.15e6, "Renilla control light, replicate 2": 2.83e6, "Call": "inactive"}
{"gene knocked down": "cocoon", "dsRNA": "DRSC28623", "firefly reporter light, replicate 1": 5.04e5, "firefly reporter light, replicate 2": 4.45e5, "Renilla control light, replicate 1": 1.43e6, "Renilla control light, replicate 2": 1.81e6, "Call": "inactive"}

The listing continues:
{"gene knocked down": "CG33463", "dsRNA": "DRSC22915", "firefly reporter light, replicate 1": 4.64e5, "firefly reporter light, replicate 2": 9.99e5, "Renilla control light, replicate 1": 1.15e6, "Renilla control light, replicate 2": 2.19e6, "Call": "inactive"}
{"gene knocked down": "CG33463", "dsRNA": "DRSC29923", "firefly reporter light, replicate 1": 5.16e5, "firefly reporter light, replicate 2": 5.77e5, "Renilla control light, replicate 1": 1.42e6, "Renilla control light, replicate 2": 1.49e6, "Call": "inactive"}
{"gene knocked down": "CG13362", "dsRNA": "DRSC17897", "firefly reporter light, replicate 1": 1.64e5, "firefly reporter light, replicate 2": 1.99e5, "Renilla control light, replicate 1": 1.67e6, "Renilla control light, replicate 2": 1.45e6, "Call": "inactive"}
{"gene knocked down": "CG13362", "dsRNA": "DRSC25324", "firefly reporter light, replicate 1": 9.25e5, "firefly reporter light, replicate 2": 7.27e5, "Renilla control light, replicate 1": 1.32e6, "Renilla control light, replicate 2": 1.08e6, "Call": "inactive"}
{"gene knocked down": "CG2233", "dsRNA": "DRSC18217", "firefly reporter light, replicate 1": 47759, "firefly reporter light, replicate 2": 40983, "Renilla control light, replicate 1": 5.15e5, "Renilla control light, replicate 2": 3.41e5, "Call": "inactive"}
{"gene knocked down": "CG6048", "dsRNA": "DRSC18398", "firefly reporter light, replicate 1": 3.16e5, "firefly reporter light, replicate 2": 6.06e5, "Renilla control light, replicate 1": 2.83e6, "Renilla control light, replicate 2": 2.74e6, "Call": "inactive"}
{"gene knocked down": "CG6048", "dsRNA": "DRSC29218", "firefly reporter light, replicate 1": 6.23e5, "firefly reporter light, replicate 2": 6.58e5, "Renilla control light, replicate 1": 1.07e6, "Renilla control light, replicate 2": 1.46e6, "Call": "inactive"}
